IC50 data for three molecules are collected here from ChEMBL document CHEMBL4011581, “Interference with bile salt export pump function is a susceptibility factor for human liver injury in drug development” (Toxicol Sci, 2010).

What is called IC50 is the midpoint of a concentration-inhibition curve.

The structures appear in SMILES notation. A value given as a limit tells only on which side of the number the result lay.

This assay has as its target Bile salt export pump (Homo sapiens, UniProt O95342). The assay is described as follows: Inhibition of human BSEP expressed in fall armyworm sf9 cell plasma membrane vesicles assessed as reduction in vesicle-associated [3H]-taurocholate transport preincubated for 10 mins prior to ATP addition measured after 15 mins in presence of [3H]-taurocholate by topcount based membrane vesicle transport assay. Format: ADME.
For `Cc1nc2n(c(=O)c1CCN1CCC(c3noc4cc(F)ccc34)CC1)CCCC2` [RISPERIDONE], the IC50 is over 135 µM. Next, `CCN(CC)CC#CCOC(=O)C(O)(c1ccccc1)C1CCCCC1` (stereo not drawn) [OXYBUTYNIN]: 27.4 µM; `CN1CCN(CCCN2c3ccccc3Sc3ccc(Cl)cc32)CC1` [PROCHLORPERAZINE]: over 135 µM.
